Counter-ions that a name gives are not always drawn. Some of the results follow. Most entries show no effect beyond the scatter of the controls.
Key:
Conditions in all cases: 5 µM; treatment: days 7-14 after plating, readout day 21
[1] = system: hPSC-derived cortical neurons (WA09); assay: nucleus area z-score vs screen plate; higher = larger nuclei (more mature)
[2] = system: hPSC-derived cortical neurons (WA09); assay: total neurite length per nucleus (MAP2) z-score; higher = more neurite growth
[3] = system: hPSC-derived cortical neurons (WA09); assay: nucleus roundness z-score vs screen plate; higher = rounder nuclei (more mature)
[4] = system: hPSC-derived cortical neurons (WA09); assay: KCl-induced FOS+/EGR-1+ double-positive nuclei fraction z-score (KCl minus unstimulated); higher = stronger activity-induced IEG response

O=C(NCCCNc1nc(Nc2cccc(NC(=O)N3CCCC3)c2)ncc1I)c1cccs1
nucleus area z-score [1]: 0.693 | total neurite length per nucleus (z-score) [2]: 0.129 | nucleus roundness z-score [3]: -0.357 | KCl-induced FOS+/EGR-1+ double-positive nuclei fraction z-score [4]: -0.197

CN(C)CCc1c[nH]c2ccc(Cn3cncn3)cc12 [Rizatriptan Benzoate]
nucleus area z-score [1]: -0.328 | total neurite length per nucleus (z-score) [2]: 0.451 | nucleus roundness z-score [3]: 0.258 | KCl-induced FOS+/EGR-1+ double-positive nuclei fraction z-score [4]: -0.221

Nc1ccc(-c2ccc3ncc4ccc(=O)n(-c5cccc(C(F)(F)F)c5)c4c3c2)cn1 [Torin 2]
nucleus area z-score [1]: -5.1 | total neurite length per nucleus (z-score) [2]: -2.56 | nucleus roundness z-score [3]: -0.554 | KCl-induced FOS+/EGR-1+ double-positive nuclei fraction z-score [4]: -0.902

CN(C(=O)CNC(=O)/C=C/c1cccc(Cl)c1)C1CCS(=O)(=O)CC1
nucleus area z-score [1]: -0.304 | total neurite length per nucleus (z-score) [2]: -0.0171 | nucleus roundness z-score [3]: -1.04 | KCl-induced FOS+/EGR-1+ double-positive nuclei fraction z-score [4]: 0.664

CCCc1cc(=O)[nH]c(=S)[nH]1 [Propylthiouracil]
nucleus area z-score [1]: -0.543 | total neurite length per nucleus (z-score) [2]: 0.38 | nucleus roundness z-score [3]: 0.122 | KCl-induced FOS+/EGR-1+ double-positive nuclei fraction z-score [4]: 1.32

Cc1cc(OCc2nnc(SC3CCCC3)n2-c2cccnc2)ccc1-c1ccc(S(C)(=O)=O)cc1
nucleus area z-score [1]: -0.0588 | total neurite length per nucleus (z-score) [2]: 0.655 | nucleus roundness z-score [3]: -0.483 | KCl-induced FOS+/EGR-1+ double-positive nuclei fraction z-score [4]: 0.0247

CCCC(=O)O[C@]1(C(=O)COC(C)=O)CC[C@H]2[C@@H]3C[C@H](F)C4=CC(=O)C=C[C@]4(C)[C@@]3(F)[C@@H](O)C[C@@]21C [Difluprednate]
nucleus area z-score [1]: 0.572 | total neurite length per nucleus (z-score) [2]: 0.755 | nucleus roundness z-score [3]: -0.378 | KCl-induced FOS+/EGR-1+ double-positive nuclei fraction z-score [4]: 0.0735

O=c1cc(-c2ccccc2)oc2cc(O)c(O)c(O)c12 [Baicalein]
nucleus area z-score [1]: 0.109 | total neurite length per nucleus (z-score) [2]: -0.423 | nucleus roundness z-score [3]: -0.39 | KCl-induced FOS+/EGR-1+ double-positive nuclei fraction z-score [4]: -0.522

CN(C)c1cccc(-c2c3c(=O)n(-c4ccccc4Cl)[nH]c3cc(=O)n2C)c1
nucleus area z-score [1]: -0.0332 | total neurite length per nucleus (z-score) [2]: 0.712 | nucleus roundness z-score [3]: 0.31 | KCl-induced FOS+/EGR-1+ double-positive nuclei fraction z-score [4]: -0.104

CNC(=O)[C@@H](c1ccccc1)N1CCc2cc(OC)c(OC)cc2[C@@H]1CCc1ccc(C(F)(F)F)cc1 [Almorexant HCl]
nucleus area z-score [1]: -2.12 | total neurite length per nucleus (z-score) [2]: -1.37 | nucleus roundness z-score [3]: -0.23 | KCl-induced FOS+/EGR-1+ double-positive nuclei fraction z-score [4]: 0.0193

Clc1ccc2nsnc2c1NC1=NCCN1 [Tizanidine HCl]
nucleus area z-score [1]: 0.117 | total neurite length per nucleus (z-score) [2]: -0.302 | nucleus roundness z-score [3]: -0.893 | KCl-induced FOS+/EGR-1+ double-positive nuclei fraction z-score [4]: -0.211

CCOc1ccc2nc3cc(N)ccc3c(N)c2c1 [Ethacridine lactate monohydrate]
nucleus area z-score [1]: -12.9 | total neurite length per nucleus (z-score) [2]: -4.86 | nucleus roundness z-score [3]: -5.17 | KCl-induced FOS+/EGR-1+ double-positive nuclei fraction z-score [4]: -0.549

COc1ccc(CCCOC(Cn2ccnc2)c2ccc(OC)cc2)cc1 (stereo not drawn)
nucleus area z-score [1]: -1.61 | total neurite length per nucleus (z-score) [2]: -0.475 | nucleus roundness z-score [3]: -0.655 | KCl-induced FOS+/EGR-1+ double-positive nuclei fraction z-score [4]: -0.962

NC(=O)NO [Hydroxyurea]
nucleus area z-score [1]: 0.0902 | total neurite length per nucleus (z-score) [2]: 0.35 | nucleus roundness z-score [3]: -0.291 | KCl-induced FOS+/EGR-1+ double-positive nuclei fraction z-score [4]: 0.127

O=C(c1cc(Cc2n[nH]c(=O)c3ccccc23)ccc1F)N1CCN(C(=O)C2CC2)CC1
nucleus area z-score [1]: -0.222 | total neurite length per nucleus (z-score) [2]: 0.462 | nucleus roundness z-score [3]: 0.663 | KCl-induced FOS+/EGR-1+ double-positive nuclei fraction z-score [4]: -0.233

COc1cc(C(=O)O)ccc1NC(=O)[C@@H]1N[C@@H](CC(C)(C)C)[C@](C#N)(c2ccc(Cl)cc2F)[C@H]1c1cccc(Cl)c1F [Idasanutlin (RG-7388)]
nucleus area z-score [1]: 0.695 | total neurite length per nucleus (z-score) [2]: 0.807 | nucleus roundness z-score [3]: 0.259 | KCl-induced FOS+/EGR-1+ double-positive nuclei fraction z-score [4]: 0.574

CCNC(=O)CCC/C=C\C[C@@H]1[C@@H](/C=C/[C@@H](O)CCc2ccccc2)[C@H](O)C[C@@H]1O [Bimatoprost]
nucleus area z-score [1]: 0.389 | total neurite length per nucleus (z-score) [2]: -0.185 | nucleus roundness z-score [3]: 1.09 | KCl-induced FOS+/EGR-1+ double-positive nuclei fraction z-score [4]: 1.48

CC1=NN(c2ccc(C)c(C)c2)C(=O)/C1=N\Nc1cccc(-c2cccc(C(=O)O)c2)c1O [Eltrombopag Olamine]
nucleus area z-score [1]: 0.401 | total neurite length per nucleus (z-score) [2]: -0.49 | nucleus roundness z-score [3]: -0.00842 | KCl-induced FOS+/EGR-1+ double-positive nuclei fraction z-score [4]: -0.219

CC[C@H]1OC(=O)[C@H](C)[C@@H](O[C@H]2C[C@@](C)(OC)[C@@H](O)[C@H](C)O2)[C@H](C)[C@@H](O[C@@H]2O[C@H](C)C[C@H](N(C)C)[C@H]2O)[C@](C)(O)C[C@@H](C)[C@@H]2N[C@@H](COCCOC)O[C@H]([C@H]2C)[C@]1(C)O [Dirithromycin]
nucleus area z-score [1]: 1.02 | total neurite length per nucleus (z-score) [2]: -1.25 | nucleus roundness z-score [3]: -1.11 | KCl-induced FOS+/EGR-1+ double-positive nuclei fraction z-score [4]: 0.207

COc1ccc(-c2cc(=O)c3c(OC)c(OC)c(OC)c(OC)c3o2)cc1 [Tangeretin]
nucleus area z-score [1]: 0.157 | total neurite length per nucleus (z-score) [2]: 0.342 | nucleus roundness z-score [3]: 0.475 | KCl-induced FOS+/EGR-1+ double-positive nuclei fraction z-score [4]: -0.656

COc1ccccc1Oc1c(NS(=O)(=O)c2ccc(C(C)(C)C)cc2)nc(-c2ncccn2)nc1OCCO [Bosentan Hydrate]
nucleus area z-score [1]: 1.39 | total neurite length per nucleus (z-score) [2]: 0.733 | nucleus roundness z-score [3]: 1.8 | KCl-induced FOS+/EGR-1+ double-positive nuclei fraction z-score [4]: 2.49

COc1cc(-c2cc(-c3ccc(N4CCNCC4)cc3)cnc2C)cc(OC)c1OC
nucleus area z-score [1]: 1.51 | total neurite length per nucleus (z-score) [2]: 1.3 | nucleus roundness z-score [3]: 0.957 | KCl-induced FOS+/EGR-1+ double-positive nuclei fraction z-score [4]: 1.63

CCOc1ccc(Cc2cc([C@@H]3O[C@H](CO)[C@@H](O)[C@H](O)[C@H]3O)ccc2Cl)cc1 [Dapagliflozin]
nucleus area z-score [1]: -0.242 | total neurite length per nucleus (z-score) [2]: 2.03 | nucleus roundness z-score [3]: 1.04 | KCl-induced FOS+/EGR-1+ double-positive nuclei fraction z-score [4]: 1.75

CN(C)C(=O)COC(=O)Cc1ccc(OC(=O)c2ccc(NC(=N)N)cc2)cc1 [Camostat Mesilate]
nucleus area z-score [1]: 0.921 | total neurite length per nucleus (z-score) [2]: 0.348 | nucleus roundness z-score [3]: 0.00646 | KCl-induced FOS+/EGR-1+ double-positive nuclei fraction z-score [4]: 2.42

CCCCNC(=O)NS(=O)(=O)c1ccc(C)cc1 [Tolbutamide]
nucleus area z-score [1]: 0.602 | total neurite length per nucleus (z-score) [2]: 0.442 | nucleus roundness z-score [3]: 0.624 | KCl-induced FOS+/EGR-1+ double-positive nuclei fraction z-score [4]: 0.381

CCS(=O)(=O)N1CC(CC#N)(n2cc(-c3ncnc4[nH]ccc34)cn2)C1
nucleus area z-score [1]: 0.693 | total neurite length per nucleus (z-score) [2]: -0.0855 | nucleus roundness z-score [3]: -0.383 | KCl-induced FOS+/EGR-1+ double-positive nuclei fraction z-score [4]: 0.394

COc1cc2nccc(Oc3ccc(NC(=O)C4(C(=O)Nc5ccc(F)cc5)CC4)cc3)c2cc1OC [Cabozantinib malate (XL184)]
nucleus area z-score [1]: 0.308 | total neurite length per nucleus (z-score) [2]: 0.942 | nucleus roundness z-score [3]: -0.348 | KCl-induced FOS+/EGR-1+ double-positive nuclei fraction z-score [4]: 0.557

CCOc1nc2cccc(C(=O)O)c2n1Cc1ccc(-c2ccccc2-c2nnn[nH]2)cc1 [Candesartan]
nucleus area z-score [1]: 0.222 | total neurite length per nucleus (z-score) [2]: 0.171 | nucleus roundness z-score [3]: -0.00357 | KCl-induced FOS+/EGR-1+ double-positive nuclei fraction z-score [4]: 0.689

CCOC(=O)N1c2ccc(C(F)(F)F)cc2[C@@H](N(Cc2cc(C(F)(F)F)cc(C(F)(F)F)c2)C(=O)OC)C[C@H]1CC [Torcetrapib]
nucleus area z-score [1]: 0.232 | total neurite length per nucleus (z-score) [2]: -0.814 | nucleus roundness z-score [3]: -1.31 | KCl-induced FOS+/EGR-1+ double-positive nuclei fraction z-score [4]: -0.0738

CN1CCC(=C2c3ccccc3CC(=O)c3sccc32)CC1 [Ketotifen Fumarate]
nucleus area z-score [1]: -0.848 | total neurite length per nucleus (z-score) [2]: 0.00877 | nucleus roundness z-score [3]: 0.997 | KCl-induced FOS+/EGR-1+ double-positive nuclei fraction z-score [4]: -1.03

CCOC(=O)c1ccc(N2NC(=O)C(=Cc3ccc([N+](=O)[O-])o3)C2=O)cc1
nucleus area z-score [1]: 0.611 | total neurite length per nucleus (z-score) [2]: 1.23 | nucleus roundness z-score [3]: 0.213 | KCl-induced FOS+/EGR-1+ double-positive nuclei fraction z-score [4]: 2.83

O=C(CCNNC(=O)c1ccncc1)NCc1ccccc1 [Nialamide]
nucleus area z-score [1]: 0.488 | total neurite length per nucleus (z-score) [2]: -0.598 | nucleus roundness z-score [3]: -0.744 | KCl-induced FOS+/EGR-1+ double-positive nuclei fraction z-score [4]: -0.423

Reference: the supplement of paper PMC11348887
